Measurements published in publication PMC3907409, “A Cytoplasmic New Catalytic Subunit of Calcineurin in Trypanosoma cruzi and Its Molecular and Functional Characterization” (PLoS Neglected Tropical Diseases, 2014).

B1: GST-TcCaNB (recombinant Trypanosoma cruzi calcineurin regulatory subunit B tagged with GST) (protein, UniProt Q5V9N6 1-176)
chain: MGEGSSFTPEEMRQLREATAFSEAQIVRLQKRFATLAQGGRGVLTAEALSSISSVASNPLLGRVLAVLDTSGDGKIDFMTFAKALAVFSPQADKRERLRFTFKMYDVDGDGKISNKDLFETLTIMVGTNLTGVQLQQIVDKTFIEVDLNRDGYITFEEFEKLSLLNNFGDRLSLSI
B2: native TcCaNB (calcineurin regulatory subunit B in Trypanosoma cruzi epimastigotes) (protein, UniProt Q5V9N6 1-176)
chain: B1 chain

How the values were obtained:
[1] = biological target: 6×His-SUMO-TcCaNA2 (recombinant Trypanosoma cruzi calcineurin catalytic subunit A2) (Trypanosoma cruzi (CL strain)); assay: far-Western, overlay or dot blot; 1 µg 6×His-SUMO-TcCaNA2 resolved on 10% SDS-PAGE, transferred to PVDF, denatured and renatured with guanidine-HCl (6, 3, 1, 0.1, 0 M), blocked with PBS, 0.5% Tween 20, 5% skim milk, incubated with 10 µg GST-TcCaNB; detected with polyclonal anti-GST-TcCaNB antibody, HRP-conjugated secondary antibody and DAB; both purified
[2] = biological target: native TcCaNA2 (calcineurin catalytic subunit A2 in Trypanosoma cruzi epimastigotes) (Trypanosoma cruzi (endogenous in CL strain epimastigotes)); assay: SDS-PAGE and Western blot of parasite extracts (size of the band, dissociation by urea); total extracts of 1×10^7 epimastigotes in Laemmli buffer, with urea (2, 4 and 6 M), overnight at 4°C; 10% SDS-PAGE, PVDF, anti-TcCaNA2 antibody; band of about 45 kDa
[3] = biological target: native TcCaNA2 (calcineurin catalytic subunit A2 in Trypanosoma cruzi epimastigotes) (Trypanosoma cruzi (endogenous in CL strain epimastigotes)); assay: SDS-PAGE and Western blot of parasite extracts (size of the band, dissociation by urea); total extracts of 1×10^7 epimastigotes in Laemmli buffer, without urea, overnight at 4°C; 10% SDS-PAGE, PVDF, anti-TcCaNA2 antibody; band of approximately 63.5 kDa

Binder | binding [1] | binding [2] | binding [3]
B1 | binds | – | –
B2 | – | no binding (only with 6 M urea) | binds

No constants are given. Whether binding was seen depends on the method and setting. For part of these data: A result given as binding can be weak or reduced; the word gives no strength. For part of these data: Where a sequence is shown, tags or fusion partners need not be part of it.
